# No constants are given. Whether binding was seen depends on the method and setting. In cells and extracts the contact can be indirect. Some entries that bind do so weakly or less than the wild type.
# Amino acid sequences for entries named in this document (tags omitted). Residues count along the entry.
# UniProt P14211, residues 18-416: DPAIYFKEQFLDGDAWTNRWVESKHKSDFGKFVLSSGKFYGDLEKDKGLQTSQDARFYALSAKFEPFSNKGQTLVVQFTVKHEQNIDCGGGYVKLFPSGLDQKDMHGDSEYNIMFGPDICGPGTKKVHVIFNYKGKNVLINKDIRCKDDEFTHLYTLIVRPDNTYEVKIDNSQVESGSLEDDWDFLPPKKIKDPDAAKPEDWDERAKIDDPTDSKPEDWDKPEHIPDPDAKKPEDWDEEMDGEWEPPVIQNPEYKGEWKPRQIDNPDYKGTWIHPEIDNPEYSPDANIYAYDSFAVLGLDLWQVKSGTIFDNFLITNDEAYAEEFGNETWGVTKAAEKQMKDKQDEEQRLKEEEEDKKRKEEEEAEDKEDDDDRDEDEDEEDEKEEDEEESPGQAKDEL
# T1: C1q/TNF-related protein 9 (not stated (endogenous in LV tissue; mouse and rat hearts were both used)) (UniProt Q4ZJN1)
# T1 sequence: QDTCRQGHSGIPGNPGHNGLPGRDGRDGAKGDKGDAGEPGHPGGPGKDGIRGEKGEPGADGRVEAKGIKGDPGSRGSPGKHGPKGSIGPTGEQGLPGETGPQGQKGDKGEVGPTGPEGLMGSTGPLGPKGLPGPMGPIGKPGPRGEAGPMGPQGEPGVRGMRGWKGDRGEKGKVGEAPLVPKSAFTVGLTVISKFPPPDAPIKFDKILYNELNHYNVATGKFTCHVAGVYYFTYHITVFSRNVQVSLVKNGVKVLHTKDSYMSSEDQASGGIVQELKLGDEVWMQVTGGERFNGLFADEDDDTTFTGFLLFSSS
# Legend:
# [1] = biological target: T1, C1q/TNF-related protein 9 (not stated (endogenous in LV tissue; mouse and rat hearts were both used)); experiment: co-IP; LV tissue lysate pre-cleared with Dynabeads Protein G or Protein A (4 °C, 2 h), then incubated with normal IgG, anti-CTRP9 or anti-CRT antibody and beads at 4 °C overnight; eluate analysed by Western blot
# [2] = biological target: calreticulin (not stated (endogenous in LV tissue; mouse and rat hearts were both used)) (UniProt P14211); experiment: as above
binding [1],binding [2],Molecule
binds,–,calreticulin (from UniProt P14211 18-416)
–,binds,"C1q/TNF-related protein 9 (protein, UniProt Q4ZJN1-1 20-333) QDTCRQGHSGIPGNPGHNGLPGRDGRDGAKGDKGDAGEPGHPGGPGKDGIRGEKGEPGADGRVEAKGIKGDPGSRGSPGKHGPKGSIGPTGEQGLPGETGPQGQKGDKGEVGPTGPEGLMGSTGPLGPKGLPGPMGPIGKPGPRGEAGPMGPQGEPGVRGMRGWKGDRGEKGKVGEAPLVPKSAFTVGLTVISKFPPPDAPIKFDKILYNELNHYNVATGKFTCHVAGVYYFTYHITVFSRNVQVSLVKNGVKVLHTKDSYMSSEDQASGGIVQELKLGDEVWMQVTGGERFNGLFADEDDDTTFTGFLLFSSS"

# Reference: publication PMC6010444
